The values that follow come from US20190192485A1, “DOSAGE REGIMEN FOR THE TREATMENT OF ENDOMETRIOSIS” (MEREO BIOPHARMA 2 LIMITED, priority 2016, published 2019).

Broadly, the IC50 is the concentration that gives 50% inhibition.

Molecules are shown by their SMILES. Read-outs that look alike come from different tables or passages of the source.

Assay [1] deals with T1, aromatase (Homo sapiens, UniProt P11511).
T1 construct: high levels of aromatase in the adipose tissue; from tissue; host or cells: in vivo, human subjects (aromatase of adipose tissue)
T1 sequence (P11511 1-503): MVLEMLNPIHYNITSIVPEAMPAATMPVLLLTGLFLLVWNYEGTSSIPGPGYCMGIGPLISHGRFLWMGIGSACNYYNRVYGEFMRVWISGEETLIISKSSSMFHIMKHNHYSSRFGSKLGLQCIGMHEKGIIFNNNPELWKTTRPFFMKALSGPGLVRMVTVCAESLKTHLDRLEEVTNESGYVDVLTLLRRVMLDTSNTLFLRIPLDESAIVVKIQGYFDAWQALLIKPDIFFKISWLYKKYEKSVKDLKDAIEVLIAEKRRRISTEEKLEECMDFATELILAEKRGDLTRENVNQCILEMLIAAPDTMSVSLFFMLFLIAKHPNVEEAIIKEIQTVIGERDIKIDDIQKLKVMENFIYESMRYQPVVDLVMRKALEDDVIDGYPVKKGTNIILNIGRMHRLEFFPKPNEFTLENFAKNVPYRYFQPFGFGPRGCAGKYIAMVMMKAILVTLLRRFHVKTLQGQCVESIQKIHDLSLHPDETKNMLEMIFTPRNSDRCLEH
Description: Low dose study in obese men with low testosterone, with PK/PD analyses of aromatase inhibition. The class given is in vivo. To be noted: plasma concentration, read-out: average estimated IC50 for aromatase inhibition (converted). How it is done:
Obese men with low testosterone levels (less than 300 ng/ml) due to the activity of the high levels of aromatase in the adipose tissue were given doses of CGP47645 starting as low as 0.003 mg and then titrated up. By inhibiting the aromatase enzyme, CGP47645 led to an increase in circulating levels by reducing the conversion of testosterone to estradiol. This study confirmed that doses of CGP47645 between 0.003 and 0.01 mg are biologically active in inhibition of aromatisation pathway as evidenced in FIG. 1.

Assay [2] addresses T1, aromatase. To be noted: microsomal fraction of human placenta; read-out: IC50 for aromatase inhibition; cited from earlier work.

As for `N#Cc1ccc(C(F)(c2ccc(C#N)cc2)n2cncn2)cc1` [CGP47645, 4,4′-[fluoro-(1-H-1,2,4-triazol-1-yl)methylene]bisbenzonitrile], the IC50 in assay [1] was 0.0989 nM; in assay [2] it was roughly 6.2 nM.
